Data as given in doi:10.1101/2024.05.01.592016.
No constants are given. Whether binding was seen depends on the method and setting. Binding seen in cells or lysates may run through a third protein. Some binding calls cover weakened binding; strength is not graded here.

Amino acid sequences for entries named in this document (tags omitted).
UniProt P28347: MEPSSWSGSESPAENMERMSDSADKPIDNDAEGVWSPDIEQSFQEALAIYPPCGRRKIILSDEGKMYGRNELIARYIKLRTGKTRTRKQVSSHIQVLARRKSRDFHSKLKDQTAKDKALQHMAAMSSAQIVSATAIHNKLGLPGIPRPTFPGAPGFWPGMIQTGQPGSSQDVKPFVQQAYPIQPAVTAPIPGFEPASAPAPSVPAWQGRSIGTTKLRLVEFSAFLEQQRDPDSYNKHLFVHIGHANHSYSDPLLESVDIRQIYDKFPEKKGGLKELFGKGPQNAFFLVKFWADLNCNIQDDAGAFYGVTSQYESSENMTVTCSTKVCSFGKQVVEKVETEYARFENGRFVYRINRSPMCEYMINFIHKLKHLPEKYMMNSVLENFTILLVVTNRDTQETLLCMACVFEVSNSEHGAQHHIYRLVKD
UniProt Q9GZV5: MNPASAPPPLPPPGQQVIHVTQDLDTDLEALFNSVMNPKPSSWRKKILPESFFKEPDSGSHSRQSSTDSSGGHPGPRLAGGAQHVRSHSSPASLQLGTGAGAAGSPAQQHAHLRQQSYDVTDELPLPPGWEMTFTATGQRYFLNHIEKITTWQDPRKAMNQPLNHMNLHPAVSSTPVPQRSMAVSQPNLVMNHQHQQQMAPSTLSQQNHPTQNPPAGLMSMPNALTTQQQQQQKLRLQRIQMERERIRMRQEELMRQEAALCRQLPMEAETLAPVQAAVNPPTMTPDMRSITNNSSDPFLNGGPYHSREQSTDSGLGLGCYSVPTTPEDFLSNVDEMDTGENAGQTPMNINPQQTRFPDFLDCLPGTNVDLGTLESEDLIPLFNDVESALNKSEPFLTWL

Target: TEAD1-Flag (UniProt P28347)
Assay: co-IP; TEAD1-Flag or TEAD1-NCOA2-Flag expressed in HEK293T cells, immunoprecipitated with an anti-Flag antibody; endogenous YAP/TAZ detected by anti-YAP/TAZ antibodies

binding: binds
Substance: endogenous TAZ (from UniProt Q9GZV5 1-400)
